In patent publication US6306822A, “Phosphopeptides and methods of treating bone diseases” (Big Bear Bio, Inc., priority 1998, dated 2001):
At least one peptide structure holds a part that was inferred or is arguable (an end, a ring closure or a residue). Some entries repeat one wording, which the source may state once for all of them. Where a SMILES comes first, the peptide text is derived from it. [ ]: non-standard residue; d: D form. pS = N[C@@H](COP(=O)(O)O)C(=O)O

Test system: ovariectomized rats (OVX rats)
Assay: Systemic BMC in postmenopausal osteoporosis model rats, 45 days oral administration (Example 2)
Type: in vivo

## N[C@@H](CO)C(=O)NCC(=O)N[C@@H](CO)C(=O)NCC(=O)N[C@@H](CO)C(=O)NCC(=O)N[C@@H](CO)C(=O)NCC(=O)N[C@@H](CO)C(=O)NCC(=O)N[C@@H](COP(=O)(O)O)C(=O)NCC(=O)N[C@@H](COP(=O)(O)O)C(=O)NCC(=O)O [MP7-2, Ser-Gly-Ser-Gly-Ser-Gly-Ser-Gly-Ser-Gly-SerPi-Gly-SerPi-Gly] (H-SGSGSGSGSG[pS]G[pS]G-OH)
Between Day 0 and Day 46, once a day oral administration for 45 consecutive days
  increase of systemic BMC (Bone Mineral Content): demonstrate an increase of systemic BMC
Once a day oral administration for 45 consecutive days, versus MP7-7 or OVX Control
  BMC increasing activity, comparison between groups: more increase of BMC compared to the negative control group
